Measured data: PubChem BioAssay AID652243 (Drosophila RNAi Screening Center, 2013)
Purpose: 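Fly genes required for human androgen receptor driven transcription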 (primary screen). Cell system: Drosophila S2R+ cells. Reagents: long dsRNA against Drosophila genes. Timing: 72 h (48 h, then 24 h hormone). Challenge: synthetic androgen R1881 at 10 nM for 24 h. Measurement: 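Firefly light from an androgen-responsive reporter and Renilla control light per well, raw and unnormalised, for each of two replicates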. Direction: firefly reporter light: higher = more light from androgen-responsive reporter; Renilla control light: higher = more constitutive control signal (cell number, transfection). Rule for the call: 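Hit when the log firefly-to-Renilla ratio dropped or increased by a fixed fold versus the mean of GFP or LacZ controls across duplicate plates; lowering cut given as 1.5 and as 3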. Calls: active = hit: reporter lowered or raised; inactive = no hit.
The screen tested about 24,000 reagents; this is an unselected part of those with a known target gene and a result. In the full data, 246 (1%) are marked active. 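Plates not normalised; calls are printed but the firefly/Renilla ratio behind them is not deposited; fold cut for lowering reported inconsistently.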 Raw values are not corrected between plates. A plus sign joins genes that one reagent is predicted to hit. The record does not give: the amount of reagent.

predicted target,DRSC id,"firefly reporter light, replicate 1","firefly reporter light, replicate 2","Renilla control light, replicate 1","Renilla control light, replicate 2",Outcome
MED30,DRSC23135,2.94e5,2.03e5,1.02e6,1.14e6,inactive
MED30,DRSC30026,9.69e5,6.58e5,1.12e6,1.30e6,inactive
CG30412,DRSC04564,6.92e5,6.41e5,3.64e6,2.75e6,inactive
CG30412,DRSC25522,9.36e5,6.84e5,6.06e5,6.97e5,inactive
CheB53a,DRSC06625,83392,1.02e5,1.19e6,1.19e6,inactive
Ir41a,DRSC04730,67828,60252,86033,1.06e5,inactive
Ir41a,DRSC04875,4.38e5,4.47e5,2.81e6,2.82e6,inactive
CAH8,DRSC15784,2.00e5,2.84e5,3.66e6,3.27e6,inactive
p120ctn,DRSC07753,73466,64025,6.84e5,1.12e6,inactive
Wdfy2,DRSC02822,7.91e5,1.00e6,2.06e6,1.99e6,inactive
Wdfy2,DRSC29755,5.02e5,3.32e5,1.74e6,1.35e6,inactive
Frq2,DRSC20245,7.73e5,7.56e5,4.04e6,3.70e6,inactive
Frq2,DRSC26037,3.28e5,3.08e5,8.16e5,7.62e5,inactive
Atg5,DRSC18112,1.15e5,1.24e5,9.43e5,5.51e5,inactive
He,DRSC28434,7.51e5,7.79e5,8.96e5,1.03e6,inactive
CG12986,DRSC19506,4.71e5,4.26e5,3.75e6,3.27e6,inactive
ng4,DRSC18805,3.28e5,3.36e5,4.34e6,3.97e6,inactive
CG7800,DRSC16315,1.55e5,1.33e5,2.76e6,2.39e6,inactive
CG7800,DRSC27419,2.95e5,2.07e5,8.80e5,8.52e5,inactive

Copied from the list.
CG30412 [DRSC04564], firefly reporter light, replicate 1 → 6.92e5
MED30 [DRSC30026], firefly reporter light, replicate 2 = 6.58e5
Under “firefly reporter light, replicate 2”, CAH8 [DRSC15784] is entered as 2.84e5
Under “firefly reporter light, replicate 2”, CheB53a [DRSC06625] is entered as 1.02e5
MED30 [DRSC23135], Renilla control light, replicate 1: 1.02e6
Value for CG12986 [DRSC19506] in “Renilla control light, replicate 1”: 3.75e6

Further reagents follow:
predicted target,DRSC id,"firefly reporter light, replicate 1","firefly reporter light, replicate 2","Renilla control light, replicate 1","Renilla control light, replicate 2",Outcome
CG17002,DRSC04978,1.08e6,1.07e6,2.53e6,2.28e6,inactive
CG17002,DRSC27573,3.33e5,2.07e5,4.60e5,5.31e5,inactive
Ttc19,DRSC02474,1.09e5,1.23e5,8.98e5,1.02e6,inactive
mRpS21,DRSC12965,1.63e5,1.87e5,3.70e5,3.91e5,inactive
mRpS21,DRSC21357,8.59e5,7.71e5,2.27e6,1.77e6,inactive
mRpS21,DRSC29842,4.98e5,4.66e5,9.93e5,1.30e6,inactive
CG6766,DRSC02991,5.45e5,3.92e5,2.91e6,2.55e6,inactive
CG9205,DRSC08642,1.13e6,9.33e5,1.69e6,1.71e6,inactive
CG43331,DRSC11671,3.16e5,2.22e5,2.76e6,2.54e6,inactive
S6k,DRSC11276,2.50e5,1.61e5,2.93e6,1.84e6,inactive
S6k,DRSC36708,,,,,inactive
S6k,DRSC36709,,,,,inactive
kon,DRSC02033,9.34e5,1.66e6,1.53e6,1.98e6,inactive
Vtld + CG42529,DRSC10102,2.71e5,1.73e5,2.09e6,1.83e6,inactive
Jon99Cii,DRSC16858,1.67e5,1.64e5,2.88e6,3.15e6,inactive
Jon99Cii,DRSC22574,4.78e5,4.37e5,7.18e5,6.86e5,inactive
DIP-epsilon,DRSC00932,7.92e5,1.07e6,2.26e6,2.32e6,inactive
DIP-epsilon,DRSC02313,3.32e5,3.34e5,2.04e6,1.65e6,inactive
DIP-epsilon,DRSC26835,4.62e5,3.22e5,1.09e6,7.97e5,inactive
CG13403,DRSC19535,3.72e5,4.79e5,3.37e6,4.32e6,inactive
CG13403,DRSC26850,2.97e5,2.18e5,8.51e5,7.34e5,inactive
CG32264,DRSC08061,18458,23797,1.63e5,1.69e5,active
CG32264,DRSC08167,1.89e5,1.93e5,2.00e6,2.17e6,inactive
CG32264,DRSC08169,1.05e6,9.13e5,1.33e6,1.00e6,inactive
CG32264,DRSC08285,2.28e5,3.79e5,2.64e6,2.87e6,inactive
CG32264,DRSC25774,4.97e5,4.25e5,1.14e6,6.35e5,inactive
Cyp313b1,DRSC16629,1.01e5,1.30e5,2.25e6,2.14e6,inactive
wrm1 + wrm2,DRSC11007,2.33e5,1.44e5,8.06e5,6.61e5,inactive
wrm1 + wrm2,DRSC24006,9.03e5,1.16e6,8.36e5,8.25e5,inactive
CG13315,DRSC09986,2.63e5,2.01e5,3.26e6,2.23e6,inactive
Oatp58Db,DRSC04364,2.96e5,3.28e5,1.85e6,1.83e6,inactive
Oatp58Db,DRSC24248,4.52e5,4.21e5,4.26e5,4.90e5,inactive
Oatp58Db,DRSC39039,6.23e5,7.62e5,1.56e6,2.11e6,inactive
rdo,DRSC02452,2.16e5,2.35e5,6.49e5,9.62e5,inactive
rdo,DRSC25572,5.72e5,4.18e5,4.79e5,4.58e5,inactive
prage,DRSC17957,86588,85514,2.51e6,2.41e6,inactive
prage,DRSC18490,1.69e5,1.73e5,2.52e6,2.33e6,inactive
prage,DRSC18497,3.75e5,5.08e5,4.18e6,3.93e6,inactive
CG17272,DRSC15211,2.37e5,1.96e5,2.41e6,3.02e6,inactive
